According to PubChem BioAssay:
Inconclusive means that the source gave no clear call. Such entries were picked first, then a sample of the others. The source made the active and inactive calls.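 Rule for the calls, unless noted: active = thallium flux slope above the same plate's solvent-only control mean plus 3 SD; inconclusive = the two replicate wells disagree; inactive = no significant difference from solvent-only control wells.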

Chains of the proteins cited; added tags and fusions are not shown. Lines headed by an entry give the natural chain unless they say otherwise; changes in a name come on top.
UniProt Q9H2X9: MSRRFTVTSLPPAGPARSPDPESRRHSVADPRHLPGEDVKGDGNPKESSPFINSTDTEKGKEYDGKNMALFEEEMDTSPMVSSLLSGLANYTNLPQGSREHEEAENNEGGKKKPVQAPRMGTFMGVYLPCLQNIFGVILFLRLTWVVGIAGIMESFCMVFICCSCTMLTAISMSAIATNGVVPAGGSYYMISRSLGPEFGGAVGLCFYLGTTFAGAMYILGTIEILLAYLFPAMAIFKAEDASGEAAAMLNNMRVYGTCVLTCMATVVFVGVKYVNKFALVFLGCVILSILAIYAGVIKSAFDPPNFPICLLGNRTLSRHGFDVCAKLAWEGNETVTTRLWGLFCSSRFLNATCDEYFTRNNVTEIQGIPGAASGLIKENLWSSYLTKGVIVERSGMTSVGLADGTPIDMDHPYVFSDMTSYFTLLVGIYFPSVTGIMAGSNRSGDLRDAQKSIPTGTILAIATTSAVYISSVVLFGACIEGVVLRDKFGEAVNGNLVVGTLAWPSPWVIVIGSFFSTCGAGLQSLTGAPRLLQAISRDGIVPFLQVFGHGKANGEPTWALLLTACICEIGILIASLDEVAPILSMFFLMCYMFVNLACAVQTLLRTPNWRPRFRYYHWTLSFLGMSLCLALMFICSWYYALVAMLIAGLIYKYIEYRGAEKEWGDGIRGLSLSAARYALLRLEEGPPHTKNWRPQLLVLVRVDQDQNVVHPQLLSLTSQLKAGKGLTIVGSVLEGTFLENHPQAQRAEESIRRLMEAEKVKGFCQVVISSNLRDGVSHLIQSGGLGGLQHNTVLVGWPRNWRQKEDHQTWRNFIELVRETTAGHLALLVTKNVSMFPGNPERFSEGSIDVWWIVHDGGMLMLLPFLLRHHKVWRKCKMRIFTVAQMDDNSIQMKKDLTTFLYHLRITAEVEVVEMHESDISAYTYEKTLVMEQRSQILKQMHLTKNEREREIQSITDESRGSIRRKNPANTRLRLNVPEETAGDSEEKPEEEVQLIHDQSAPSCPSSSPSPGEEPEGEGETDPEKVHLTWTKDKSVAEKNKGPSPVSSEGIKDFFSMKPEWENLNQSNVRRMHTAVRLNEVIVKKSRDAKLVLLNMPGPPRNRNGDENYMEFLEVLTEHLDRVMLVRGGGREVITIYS

Legend:
[1] = biological target: Solute carrier family 12 member 5 (Homo sapiens) (UniProt Q9H2X9); assay: retest of KCC2 transport modulators without sodium – cell-based, HEK293 KCC2, thallium flux, secondary assay, confirmation (AID 1713); details: FluoZin2 fluorescence, at 10 µM, active compounds read high
How it was run: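 Evaluation: F/F0 slope over 10–20 s post-thallium, baseline-normalized / Material: KCC2-expressing HEK cells / Detection: FluoZin2 fluorescence, 480/540 nm, 1 Hz / Times: 48 min dye loading / Medium: Sodium-free N-methylglucamine chloride buffer / Compound: 10 µM single dose, 0.1% DMSO / Control set: bumetanide and DMSO controls / Probe or stimulus: thallium sulfate stimulus buffer at pH 7.3 / Repeats: duplicates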

[2] = compound effects on native HEK Tl+ uptake – HEK cells, counterscreen 1, counter-screen for KCC2 modulator project, confirmation (AID 1716;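 active = thallium flux rate significantly above the same plate's solvent-only control wells, beyond their mean plus 3 SD; inconclusive = the two replicate wells gave conflicting results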); details: HEK293 parental cells, thallium flux FluoZin2, ouabain; at 10 µM; baseline-ratio fluorescence slope, 10–20 s after thallium
[3] = biological target: Solute carrier family 12 member 5 (Homo sapiens) (UniProt Q9H2X9); assay: modulation of KCC2 thallium flux in HEK cells – cell-based, ouabain, retest, confirmation (AID 1717;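 active = thallium flux slope beyond 3 SD from same-plate DMSO control mean in most replicates, usually higher, sometimes lower; inconclusive = repeat tests gave conflicting results; inactive = no significant difference from controls in most replicates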;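 note: slope of initial-normalized fluorescence between seconds 10 and 20 after thallium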); details: HEK293-KCC2, thallium flux FluoZin2 fluorescence, at 10 µM, bidirectional: low = inhibitor, high = activator
[4] = native HEK Tl+ uptake effects, second counter-screen – HEK cells, counterscreen 2, counter-screen for KCC2 modulator project, confirmation (AID 1718;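 active = thallium flux slope above the same plate's solvent-control mean plus 3 SD in both duplicate wells; inconclusive = duplicate wells that disagreed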;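 note: run without ouabain in cells lacking the KCC2 cotransporter; slope of fluorescence scaled to its starting value between 10 and 20 s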); details: HEK293 parental, thallium flux FluoZin-2 fluorescence slope; at 10 µM
How it was run: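 Material: parental HEK cells. Medium: HBSS, 20 mM HEPES. Reagent: thallium sulfate stimulus, 12 mM in buffer, pH 7.3. Incubation: overnight cell culture at 37 °C, 48 min dye loading, compound before thallium. Signal: FluoZin-2 fluorescence kinetics. Read-out basis: thallium influx rate. Repeats: Per-replicate slope values.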

SMILES	normalised thallium flux (F/F0 slope) [1]	thallium flux rate (normalised fluorescence) [2]	raw Tl+ flux slope (below DMSO = inhibition, above = activation) [3]	thallium flux slope [4]
Fc1ccc(-n2c(-c3ccc4ccccc4n3)n[nH]c2=S)cc1	inconclusive: 0.00895	active: 0.0178	–	–
O=c1[nH]c(CSc2nc3ccccc3s2)nc2cc(Cl)ccc12	inactive: 0.0107	inconclusive: 0.0062	inconclusive: 0.0234	–
COC(=O)c1ccc2c(=O)n(-c3ccc(OC)cc3)c(=S)[nH]c2c1	inactive: 0.0104	active: 0.0119	inconclusive: 0.0264	–
CCOc1cccc(C(=O)NC(=S)Nc2cccc(C)c2)c1	inactive: 0.00668	active: 0.0122	inconclusive: 0.0258	–
O=C(Nc1cc(=O)[nH]c2nc(-c3ccccc3)nn12)c1ccccc1Cl	inactive: 0.00813	inactive: 0.00681	inconclusive: 0.0172	inconclusive: 0.0106
O=C(NC(=S)Nc1ccc(Cl)cc1)c1ccccc1	active: 0.016	inconclusive: 0.0401	active: 0.0462	–
COc1ccc(-c2nnc(SCC(=O)N3CCc4ccccc4C3)o2)cc1	inconclusive: 0.00665	inconclusive: 0.00607	active: 0.0161	–
N#C/C(=C\c1cccs1)C(=O)Nc1nccs1	active: 0.0123	active: 0.013	inconclusive: 0.0299	–
CC(=O)c1cccc(NC(=O)Nc2ccc(C(=O)N3CCCC3)cc2)c1	inconclusive: 0.0188	inactive: 0.00642	inactive: 0.0155	–
N#Cc1nc(Cc2cccc3ccccc23)oc1NCCCN1CCOCC1	inconclusive: 0.00641	inactive: 0.00675	active: 0.0137	active: 0.0114
COc1ccc(CCNc2cc(-c3ccccc3)nc3ncnn23)cc1	inactive: 0.00712	inactive: 0.0068	inactive: 0.0169	inconclusive: 0.00979
O=c1c2cc(Br)ccc2[nH]c(=S)n1Cc1ccccn1	inconclusive: 0.00842	active: 0.0457	active: 0.0572	–
CCOC(=O)c1c(NC(=S)NCc2ccccc2)sc2c1CCN(C(=O)OCC)C2	inconclusive: 0.0118	active: 0.0137	inactive: 0.0236	–
Cc1cccc(NC(=S)NNC(=O)c2csc(C)c2)c1	inconclusive: 0.00484	active: 0.0173	inconclusive: 0.028	–
CC12CCCCN1CCCc1c2[nH]c2ccccc12 (centres undefined)	inconclusive: 0.00439	inactive: 0.00766	inconclusive: 0.0174	–
O=C(c1nn2c(C(F)(F)F)cc(-c3ccco3)nc2c1Br)N1CCCc2ccccc21	inconclusive: 0.00451	inactive: 0.00748	inconclusive: 0.0172	–
Cc1nc(C(=O)NNC(=O)c2cccc(Cl)c2)c(C(F)(F)F)o1	active: 0.0126	inconclusive: 0.0103	inactive: 0.0232	–
C=CCNC(=S)NC(=O)c1csc([N+](=O)[O-])c1	inactive: 0.00923	active: 0.00972	inconclusive: 0.0286	–
CCOc1ccc(/C=C2\SC(=S)N(NS(=O)(=O)c3ccccc3)C2=O)cc1OC	inconclusive: 0.00476	active: 0.0137	inconclusive: 0.0252	active: 0.0178
CCCn1c(=S)[nH]c2cc(OC)c(OC)cc2c1=O	active: 0.0134	inconclusive: 0.0118	inconclusive: 0.0268	inconclusive: 0.0149
Cc1ccc(-n2c(C)cc(-c3csc(N)n3)c2C)cc1	inactive: 0.0086	inconclusive: 0.00333	inactive: 0.0194	–
COC(=O)CSc1cc(SCC(=O)OC)c(C#N)c(SCC(=O)OC)c1	inactive: 0.00587	inconclusive: 0.00632	inactive: 0.0184	–
CC(C)(C)NC(=O)C(=O)NNC(=O)c1ccccc1Br	active: 0.0146	inconclusive: 0.0115	active: 0.0298	–
CCn1c(-c2ccc(C(C)(C)C)cc2)n[nH]c1=S	inconclusive: 0.0134	inconclusive: 0.013	active: 0.0318	inconclusive: 0.0151
CCN(Cc1ccccc1)S(=O)(=O)c1ccc(C(=O)Nc2nnc(C3CC3)o2)cc1	inactive: 0.0117	inconclusive: 0.0064	inconclusive: 0.0254	inactive: 0.0118
Cc1cc(-c2n[nH]c(=S)n2/N=C/C(Cl)=C/c2ccccc2)n[nH]1	inactive: 0.00932	inconclusive: 0.0064	inactive: 0.0197	inactive: 0.0109
CC(=O)Nc1ccc(NC(=O)c2ccc(CSc3ccccc3)o2)cc1	inactive: 0.00624	inactive: 0.00709	active: 0.0146	inconclusive: 0.01
FC(F)(F)c1ccc(Cl)c(-n2c(-c3cc(C4CC4)[nH]n3)n[nH]c2=S)c1	inactive: 0.0113	inconclusive: 0.0079	inconclusive: 0.0237	–

Shown bar-delimited: part of the list above
SMILES | normalised thallium flux (F/F0 slope) [1] | thallium flux rate (normalised fluorescence) [2] | raw Tl+ flux slope (below DMSO = inhibition, above = activation) [3] | thallium flux slope [4]
O=C(Nc1cc(=O)[nH]c2nc(-c3ccccc3)nn12)c1ccccc1Cl | inactive: 0.00813 | inactive: 0.00681 | inconclusive: 0.0172 | inconclusive: 0.0106
O=C(NC(=S)Nc1ccc(Cl)cc1)c1ccccc1 | active: 0.016 | inconclusive: 0.0401 | active: 0.0462 | –
COc1ccc(-c2nnc(SCC(=O)N3CCc4ccccc4C3)o2)cc1 | inconclusive: 0.00665 | inconclusive: 0.00607 | active: 0.0161 | –
N#C/C(=C\c1cccs1)C(=O)Nc1nccs1 | active: 0.0123 | active: 0.013 | inconclusive: 0.0299 | –
CC(=O)c1cccc(NC(=O)Nc2ccc(C(=O)N3CCCC3)cc2)c1 | inconclusive: 0.0188 | inactive: 0.00642 | inactive: 0.0155 | –
N#Cc1nc(Cc2cccc3ccccc23)oc1NCCCN1CCOCC1 | inconclusive: 0.00641 | inactive: 0.00675 | active: 0.0137 | active: 0.0114
COc1ccc(CCNc2cc(-c3ccccc3)nc3ncnn23)cc1 | inactive: 0.00712 | inactive: 0.0068 | inactive: 0.0169 | inconclusive: 0.00979
O=c1c2cc(Br)ccc2[nH]c(=S)n1Cc1ccccn1 | inconclusive: 0.00842 | active: 0.0457 | active: 0.0572 | –
CCOC(=O)c1c(NC(=S)NCc2ccccc2)sc2c1CCN(C(=O)OCC)C2 | inconclusive: 0.0118 | active: 0.0137 | inactive: 0.0236 | –
Cc1cccc(NC(=S)NNC(=O)c2csc(C)c2)c1 | inconclusive: 0.00484 | active: 0.0173 | inconclusive: 0.028 | –
CC12CCCCN1CCCc1c2[nH]c2ccccc12 (centres undefined) | inconclusive: 0.00439 | inactive: 0.00766 | inconclusive: 0.0174 | –
O=C(c1nn2c(C(F)(F)F)cc(-c3ccco3)nc2c1Br)N1CCCc2ccccc21 | inconclusive: 0.00451 | inactive: 0.00748 | inconclusive: 0.0172 | –
Cc1nc(C(=O)NNC(=O)c2cccc(Cl)c2)c(C(F)(F)F)o1 | active: 0.0126 | inconclusive: 0.0103 | inactive: 0.0232 | –
C=CCNC(=S)NC(=O)c1csc([N+](=O)[O-])c1 | inactive: 0.00923 | active: 0.00972 | inconclusive: 0.0286 | –
CCOc1ccc(/C=C2\SC(=S)N(NS(=O)(=O)c3ccccc3)C2=O)cc1OC | inconclusive: 0.00476 | active: 0.0137 | inconclusive: 0.0252 | active: 0.0178

(further entries)

SMILES	normalised thallium flux (F/F0 slope) [1]	thallium flux rate (normalised fluorescence) [2]	raw Tl+ flux slope (below DMSO = inhibition, above = activation) [3]	thallium flux slope [4]
NC(=O)c1ccccc1NC(=O)Nc1cccc2ccccc12	inconclusive: 0.0104	inactive: 0.00605	inactive: 0.0189	–
O=C(CC(C(=O)N1CCc2ccccc21)n1ccnc1)N1CCc2ccccc2C1 (centres undefined)	inconclusive: 0.00546	inactive: 0.00686	inconclusive: 0.0151	–
CC(C)c1ccc(CNC(=O)C(=O)Nc2nccs2)cc1	inconclusive: 0.0121	active: 0.0188	inconclusive: 0.026	–
CCOc1cc(CNCCc2ccc(S(N)(=O)=O)cc2)cc(Cl)c1OCc1ccccc1	inconclusive: 0.0192	inactive: 0.00811	inactive: 0.0171	–
CC(C)Oc1ccc2c(=O)c(-c3ccccc3)coc2c1	active: 0.00325	inconclusive: 0.0059	active: 0.014	–
O=C(Nc1ccccc1C(=O)Nc1nnc(C(F)(F)F)s1)c1ccccc1	inconclusive: 0.00613	inconclusive: 0.0097	inactive: 0.0193	–
O=C(NC(=S)NCCC1=CCCCC1)c1ccccc1Br	inconclusive: 0.00907	active: 0.0387	active: 0.0427	–
C=CCn1c(=S)[nH]c2nc3c(cc2c1=O)COC(C)(C)C3	inconclusive: 0.0132	inconclusive: 0.00635	inconclusive: 0.0267	–
CC(C)CCn1c(O)c(N=Nc2ccccn2)c2ccccc21	inactive: 0.00923	inconclusive: 0.0114	inconclusive: 0.0251	–
O=C(CN1CCN(c2ccccc2F)CC1)c1c[nH]c2ccc(F)cc12	inactive: 0.00728	inconclusive: 0.00864	active: 0.0176	inactive: 0.0101
COc1ccc(OCC(=O)NNC(=O)c2cc3ccccc3o2)cc1	active: 0.0134	inconclusive: 0.00895	inconclusive: 0.0256	–
O=C1C2Sc3[nH]c(=O)sc3C(c3ccccc3)C2C(=O)N1c1ccccc1 (centres undefined)	inconclusive: 0.00477	inactive: 0.00869	inconclusive: 0.013	–
Cc1ccccc1Cn1c(O)c(N=NC(=S)Nc2ccccc2F)c2ccccc21	inconclusive: 0.0129	inconclusive: 0.00975	inconclusive: 0.0258	inconclusive: 0.0159
O=C(Nc1nnc(-c2ccccc2)o1)Nc1ccccc1Cl	inconclusive: 0.0141	inconclusive: 0.019	–	inconclusive: 0.0162
CCNC(=S)N=Nc1c(O)[nH]c2ccc(C(C)C)cc12	inconclusive: 0.00796	active: 0.0222	–	active: 0.0161
Cc1ccc(Nc2c([N+](=O)[O-])c(=O)oc3ccccc23)cc1C	inactive: 0.0178	inconclusive: 0.00613	inactive: 0.014	inactive: 0.00898
COc1ccc(C)cc1NC(=O)CN(C)S(=O)(=O)c1cnc[nH]1	inactive: 0.00998	inactive: 0.00768	inactive: 0.0234	inconclusive: 0.0112
COc1cccc2sc(Nc3nc(C)c(C(C)=O)s3)nc12	inactive: 0.00922	–	inactive: 0.0215	–
CCCN1C=CC(=CC=C(C#N)C#N)C=C1	active: 0.00215	inconclusive: 0.00477	active: 0.00659	inconclusive: 0.00789
Cc1ccc(OCCCn2c(=O)sc3ccccc32)cc1	inactive: 0.0101	inactive: 0.00778	inactive: 0.0211	inconclusive: 0.0111
O=C(Oc1c(-c2ccccc2)oc2ccccc2c1=O)c1ccccc1	active: 0.0139	inconclusive: 0.0174	–	inconclusive: 0.0151
CCOC(=O)c1sc(NNC(=O)c2ccc(F)cc2)nc1C	active: 0.0155	inconclusive: 0.0088	–	inconclusive: 0.0134
CN(C)c1nc(=NCc2ccco2)ss1	active: 0.0366	inconclusive: 0.0177	–	inconclusive: 0.0157
O=C(NNc1nc2c(F)cc(F)cc2s1)C1COc2ccccc2O1 (centres undefined)	inconclusive: 0.0122	inconclusive: 0.0225	–	inconclusive: 0.0157
CNC(=O)C1CC(=O)N(Cc2ccccc2)C(=Nc2ccc(OC)cc2)S1 (centres undefined)	inconclusive: 0.00513	–	inactive: 0.0186	–
CN(C)S(=O)(=O)c1ccc(NC(=S)NC(=O)c2cccs2)cc1	inactive: 0.00935	active: 0.00839	inconclusive: 0.0236	inactive: 0.00966
CCOC(=O)C1=C(NC(=S)NC(=O)c2ccccc2)c2ccccc2CC1(C)CC (centres undefined)	inconclusive: 0.0118	active: 0.0151	inconclusive: 0.0381	inactive: 0.0113
